Screen size: about 240,000 compounds; about 1,300 (0.54%) were called active. The inconclusive results got no clear call from the source; some entries with a clear call stand among them for comparison. The call rests on the fitted dose curve; in most records, active means well fitted inhibition curve with a large enough effect; inconclusive means small, poorly fitted or top-dose-only effect; inactive means flat fitted curve, though single readings scatter. Potencies beside an inconclusive call are fits to weak or partial responses and may not hold up. The source holds several records for some structures; these can differ, active in one and inactive in another.
biological target: ATP-dependent DNA helicase Q1 (Homo sapiens) (UniProt P46063); assay: qHTS Assay for Inhibitors of RecQ-Like Dna Helicase 1 (RECQ1); conditions: RECQ1 DNA unwinding, red fluorescence kinetic read; activity, negative = inhibition: at 57.3 µM (top of the series); series mostly up to 57.3 µM; further: nearly all actives have a fitted effect of over 30% in size;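 on activity, negative = inhibition: plate controls were vehicle for no effect and no enzyme for full effect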
In short: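 RECQ1T1 50 nM; forked duplex (20 bp + 30-nt ss tails) 200 nM, ATP 2 mM final; pH 8.0, 2 mM MgCl2, 2.5 ug/ml poly(dI-dC); 15 min compound preincubation; discontinuous kinetic read over 2 h at RT.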
Potency means the concentration at half of the fitted maximal effect.

The chains behind the UniProt entries cited, without tags or fusion partners. Where a name states a change or a piece, a line headed by the entry shows the natural chain unless it says otherwise.
UniProt P46063: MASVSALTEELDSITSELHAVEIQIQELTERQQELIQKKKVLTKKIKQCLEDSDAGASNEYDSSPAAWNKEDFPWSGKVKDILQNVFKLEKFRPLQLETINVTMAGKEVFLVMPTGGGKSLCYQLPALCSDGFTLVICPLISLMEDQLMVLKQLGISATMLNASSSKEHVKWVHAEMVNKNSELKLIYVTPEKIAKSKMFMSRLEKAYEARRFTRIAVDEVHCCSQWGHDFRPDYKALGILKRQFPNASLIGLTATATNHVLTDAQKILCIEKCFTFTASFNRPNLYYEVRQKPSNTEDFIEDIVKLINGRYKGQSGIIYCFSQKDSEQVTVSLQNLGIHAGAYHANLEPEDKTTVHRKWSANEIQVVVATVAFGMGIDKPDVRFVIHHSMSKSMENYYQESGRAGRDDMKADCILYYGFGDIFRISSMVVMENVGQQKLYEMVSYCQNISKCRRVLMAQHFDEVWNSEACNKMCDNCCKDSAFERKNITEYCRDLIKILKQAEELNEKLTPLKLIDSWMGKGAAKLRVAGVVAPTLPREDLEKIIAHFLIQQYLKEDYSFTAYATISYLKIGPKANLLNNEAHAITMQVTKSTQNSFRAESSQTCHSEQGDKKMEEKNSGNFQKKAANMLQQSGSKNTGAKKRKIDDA

| Compound | Potency | outcome | activity, negative = inhibition |
| --- | --- | --- | --- |
| CC1Cc2ccccc2N1C(=O)CCn1c(=O)oc2ccccc21 (configuration not stated) | inconclusive: 7.08 µM [inhibitor, single point] |  |  |
| Oc1c(C=C2N=c3ccccc3=N2)sc(=S)n1-c1ccccc1 | inactive |  |  |
| COC(=O)c1c(C(=O)OC)c2cccc3cc(-c4ccccc4)c4ccc1c4n32 | active: 3.98 µM |  |  |
| COc1ccc(/C=N/NC(=O)c2nn(-c3ccc(Cl)cc3)c(=O)c3c(N)scc23)cc1 | inconclusive: 39.8 µM [inhibitor, single point] |  |  |
| COc1cc2cc(CN(Cc3cccs3)C(=S)Nc3cccc(C)c3)c(=O)[nH]c2cc1OC | inconclusive: 0.141 µM [inhibitor, full curve, poor fit] |  |  |
| CC(C)(C)c1cc(/C=C(\C#N)C(N)=S)cc(C(C)(C)C)c1O | inconclusive: 28.2 µM [inhibitor, partial curve] |  |  |
| CCOC(=O)c1cccc(NC(=O)CSc2nnc(COc3ccccc3)n2CC)c1 | inconclusive: 0.141 µM [inhibitor, full curve] |  |  |
| O=c1[nH][nH]c2c(N=Cc3ccccc3O)ccc(F)c12 | inconclusive: 25.1 µM [inhibitor, single point] |  |  |
| O=C(Nc1ccc(NC(=O)c2cccs2)cc1)c1ccc(Br)o1 | inconclusive: 31.6 µM [inhibitor, single point] |  |  |
| O=C1CCCC(O)=C1N=Nc1ccc(C(=O)O)cc1 | inconclusive: 39.8 µM [inhibitor, single point] |  |  |
| Cc1ccc(S(=O)(=O)/N=C2/C=C(Sc3ncn[nH]3)C(=O)c3ccccc32)cc1 | inconclusive: 39.8 µM [inhibitor, single point] |  |  |
| Oc1cccc(O)c1O | active: 6.31 µM |  |  |
| S=C(Nc1ccc(Oc2ccccc2)cc1)NC1CCCCCC1 | inactive |  |  |
| CC(C)c1ccccc1NC(=O)CCc1nc2ccccc2s1 | inconclusive: 35.5 µM [inhibitor, partial curve] |  |  |
| COc1ccc(-c2coc3cc(O)cc(O)c3c2=O)cc1 | inconclusive: 1.26 µM [inhibitor, full curve, poor fit] |  |  |
| Cc1ccc(/C=C/C(=O)N2CC(=O)Nc3ccccc32)o1 | inactive |  |  |
| CN1C(=O)C2(c3ccccc31)C1CCCC=C1C(C#N)=C(N)C2(C#N)C#N (configuration not stated) | inconclusive: 31.6 µM [inhibitor, single point] |  |  |
| CCCCc1nc2c(c3c1C[C@H](C)OC3)CN(C(=O)Cc1cccs1)CC2 |  | inactive [at 11.5 µM] |  |
| O=C(O)c1ccc(N2C(=O)/C(=C/c3ccc(-c4ccc([N+](=O)[O-])cc4)o3)C=C2c2ccccc2)cc1 | active: 17.8 µM |  |  |
| COc1ccc(N2CCN(C(=O)CCCCn3c(=O)[nH]c4ccsc4c3=O)CC2)cc1 | inconclusive: 2.82 µM [inhibitor, full curve] |  |  |
| COc1ccc(C2CC(=O)Oc3c(C(CCN4CCOCC4)c4ccc5c(c4)OCO5)c(OC)cc(OC)c32)cc1 (configuration not stated) | inactive |  |  |
| Cc1ccc(C(c2ccc(C)o2)c2cccc([N+](=O)[O-])c2O)o1 | inconclusive: 8.91 µM [inhibitor, full curve, poor fit] |  |  |
| OC(COc1ccc(Cl)cc1)CN1CCN(c2cccc(Cl)c2)CC1 (configuration not stated) | active: 35.5 µM |  |  |

| Compound | Potency | outcome | activity, negative = inhibition |
| --- | --- | --- | --- |
| CCNc1nc(Oc2ccc(=O)n(-c3ccccc3)n2)nc(N2CCOCC2)n1 | inconclusive: 39.8 µM [inhibitor, single point] |  |  |
| Cc1cc(C)cc(OCC(=O)Nc2nonc2NC(=O)COc2cc(C)cc(C)c2)c1 | inconclusive: 35.5 µM [inhibitor, single point] |  |  |
| Cc1onc(-c2c(F)cccc2Cl)c1C(=O)OCC(=O)c1c[nH]c2ccccc12 | active: 22.4 µM |  |  |
| Oc1ccc(O)c2c(O)cccc12 | active: 3.98 µM |  |  |
| CCOC(=O)C1(CCc2ccccc2)CCN(C(=O)C2CCCO2)CC1 (configuration not stated) | inconclusive: 22.4 µM [inhibitor, single point] |  |  |
| COc1cc(/C=N/NC(=O)c2ccc(CN3C(=O)c4cccc5cccc3c45)cc2)cc(OC)c1O | inactive |  |  |
| O=C(c1cccc(F)c1)N1CCC2(CC1)CN(c1ccc(-c3ccccc3)cc1)C2 | inactive |  |  |
| C=CCn1c(SCC(=O)NC2CCCC2)nc2scc(-c3ccco3)c2c1=O | inconclusive: 39.8 µM [inhibitor, single point] |  |  |
| Cc1cc(-c2ccc(N=Nc3cc(S(=O)(=O)O)c4ccccc4c3N)c(C)c2)ccc1N=Nc1cc(S(=O)(=O)O)c2ccccc2c1N | active: 12.6 µM |  |  |
| CCC(=O)Nc1nc2ccc3nc(C)sc3c2s1 | inactive |  |  |
| COc1ccc(C2C(C#N)=C(N)N(c3sc4c(c3C#N)CCCC4)C3=C2C(=O)CC(C)(C)C3)cc1 (configuration not stated) | inconclusive: 5.62 µM [inhibitor, partial curve] |  |  |
| O=C1CC(=O)N(Cc2ccco2)C(=O)N1 | inconclusive: 25.1 µM [inhibitor, single point] |  |  |
| CCc1cc2c(=O)c(-c3nc4ccccc4[nH]3)coc2c(CN2CCCCC2C)c1O (configuration not stated) | inconclusive: 39.8 µM [inhibitor, partial curve] |  |  |
| COC(=O)c1cc(C(=O)Nc2ccc(Cl)cn2)cc([N+](=O)[O-])c1 | inconclusive: 44.7 µM [inhibitor, single point] |  |  |
| CN(C)c1ccc(NC(=S)NC(=O)/C=C/c2ccc(Cl)cc2)cc1 | inconclusive: 0.112 µM [inhibitor, partial curve, poor fit] |  |  |
| CCOc1ccc(/C=C/C(=O)c2cc(Br)ccc(=O)c2O)cc1 | active: 22.4 µM |  |  |
| COC(=O)C1=C(C(=O)OC)[C@@H]2N(Cc3ccccc3)c3ccccc3[C@@]23C[C@@H](C(=O)OC)N(S(=O)(=O)c2ccc4c(c2)OCCN4C)C3=N1 | inconclusive: 6.31 µM [inhibitor, single point] |  |  |
| CCOC(=O)c1nn(-c2ccccc2)c2nc(-c3ccc(OC)cc3)c(C#N)c(=O)n12 | inconclusive: 0.178 µM [inhibitor, full curve, poor fit] |  |  |
| COC(=O)c1ccc(C(C(=O)NC2CCCCC2)N(Cc2ccccc2)C(=O)Cc2cccs2)cc1 (configuration not stated) | inconclusive: 0.794 µM [inhibitor, single point] |  |  |
| CS(=O)(=O)N(CC(=O)Nc1ccc(CC#N)cc1)c1ccc(C23CC4CC(CC(C4)C2)C3)cc1 | active: 7.94 µM |  |  |
| CCc1ccc(S(=O)(=O)/N=C2/C=C(Sc3ncn[nH]3)C(=O)c3ccccc32)cc1 | inconclusive: 39.8 µM [inhibitor, single point] |  |  |
| COc1ccc(-c2cc(-c3c(O)c(OC)c4occc4c3OC)[nH]n2)cc1OC | inconclusive: 35.5 µM [inhibitor, partial curve] |  |  |
| Fc1ccc(-n2nnc(-c3ccnc4ccccc34)n2)cc1 | inconclusive: 39.8 µM [inhibitor, single point] |  |  |

| Compound | Potency | outcome | activity, negative = inhibition |
| --- | --- | --- | --- |
| COc1ccc(COC(=O)N/N=C2/C[C@@H](O)[C@@H](O)[C@@H]3[C@H]4C(=O)N(c5ccc(F)cc5F)C(=O)[C@@H]4CC[C@@H]23)cc1 |  |  | inactive: 8.16% [at 11.5 µM] |
| CCOc1ccc(/C=N/NC(=O)COc2ccccc2-c2ccccc2)cc1 | inconclusive: 0.891 µM [inhibitor, full curve] |  |  |
| CCc1ccc(C2=Nn3c(nnc3-c3cccs3)SC2)cc1 | inconclusive: 7.08 µM [inhibitor, single point] |  |  |
| COc1cc(N(C)C)cc(CN(C)CCc2ccc([N+](=O)[O-])cc2)c1O | active: 10 µM |  |  |
| Cc1c(NC(=O)CN2CCCc3ccccc32)c(=O)n(-c2ccccc2)n1C | inactive |  |  |
| O=C(O)c1ccc(C=C(c2nc3ccccc3s2)c2nc3ccccc3s2)cc1 | inactive |  |  |
| CCN1/C(=C/c2ccc3cc(C)cc(C)c3[n+]2CC)Sc2cc(C)ccc21 | inconclusive: 39.8 µM [inhibitor, single point] |  |  |
| S=C(NCc1ccccc1)N1CCn2cccc2C1c1cccnc1 (configuration not stated) | inconclusive: 7.08 µM [inhibitor, single point] |  |  |
| CN(c1ccccc1)c1ccc(/C=C(\CCC(=O)O)c2nc3ccccc3s2)cc1[N+](=O)[O-] | inconclusive: 20 µM [inhibitor, partial curve, poor fit] |  |  |
| CCC[n+]1c(C)sc2c3c(ccc21)CCCC3 | inactive |  |  |
| CCCCc1cc2c(cn1)=C(OC(=O)c1ccco1)C(C)(OC(=O)CC)C(=O)C=2 (configuration not stated) |  | inactive [at 11.5 µM] |  |
| COc1cccc2c(C)c(C(=O)O)[nH]c12 | inconclusive: 35.5 µM [inhibitor, single point] |  |  |
| CCn1c(O)c(/C=C/C=C/C=Nc2ccccc2)sc1=S | inactive |  |  |
| COC(=O)C1(Cc2ccc(O)cc2)OC(=O)C(O)=C1c1ccc(O)cc1 (configuration not stated) | inconclusive: 31.6 µM [inhibitor, single point] |  |  |
| COc1ccc2cc3c(N)c(C(=O)NCc4ccco4)sc3nc2c1 | inactive |  |  |
| CCS(=O)(=O)N1Cc2ccccc2CC1C(=O)Nc1nc2ccc(C)cc2s1 (configuration not stated) | inconclusive: 0.562 µM [inhibitor, partial curve, poor fit] |  |  |
| Cc1cccc(N(Cc2ccccc2F)S(C)(=O)=O)c1 | inconclusive: 0.282 µM [inhibitor, full curve, poor fit] |  |  |
| O=C(O)c1cc(-c2ccco2)nc2ccc(Br)cc12 | active: 3.16 µM |  |  |
| NC(=O)c1cc([N+](=O)[O-])ccc1NCCN1C(=O)c2ccc(C(=O)O)cc2C1=O | inactive |  |  |
| CC1CCCC(NC(=O)COC(=O)CCc2ccccc2)C1C (configuration not stated) | inconclusive: 15.8 µM [inhibitor, partial curve, poor fit] |  |  |
| O=C(O)C/C(=C\c1cccc(NC(=O)c2ccccc2Cl)c1)c1nc2ccccc2s1 | inconclusive: 39.8 µM [inhibitor, single point] |  |  |

Record cards, from the list above:
COc1ccc2cc3c(N)c(C(=O)NCc4ccco4)sc3nc2c1 in the list: Potency: inactive
CN(c1ccccc1)c1ccc(/C=C(\CCC(=O)O)c2nc3ccccc3s2)cc1[N+](=O)[O-] in the list: Potency: inconclusive: 20 µM [inhibitor, partial curve, poor fit]
CCOc1ccc(/C=N/NC(=O)COc2ccccc2-c2ccccc2)cc1 in the list: Potency: inconclusive: 0.891 µM [inhibitor, full curve]
S=C(NCc1ccccc1)N1CCn2cccc2C1c1cccnc1 (configuration not stated) in the list: Potency: inconclusive: 7.08 µM [inhibitor, single point]
